US20160362472A1 (published 2016)
These are yes or no findings as the source states them, for the method shown. Some binding calls cover weakened binding; strength is not graded here.

Amino acid sequences for entries named in this document (tags omitted). Residues count along the entry.
UniProt P20273, residues 20-687: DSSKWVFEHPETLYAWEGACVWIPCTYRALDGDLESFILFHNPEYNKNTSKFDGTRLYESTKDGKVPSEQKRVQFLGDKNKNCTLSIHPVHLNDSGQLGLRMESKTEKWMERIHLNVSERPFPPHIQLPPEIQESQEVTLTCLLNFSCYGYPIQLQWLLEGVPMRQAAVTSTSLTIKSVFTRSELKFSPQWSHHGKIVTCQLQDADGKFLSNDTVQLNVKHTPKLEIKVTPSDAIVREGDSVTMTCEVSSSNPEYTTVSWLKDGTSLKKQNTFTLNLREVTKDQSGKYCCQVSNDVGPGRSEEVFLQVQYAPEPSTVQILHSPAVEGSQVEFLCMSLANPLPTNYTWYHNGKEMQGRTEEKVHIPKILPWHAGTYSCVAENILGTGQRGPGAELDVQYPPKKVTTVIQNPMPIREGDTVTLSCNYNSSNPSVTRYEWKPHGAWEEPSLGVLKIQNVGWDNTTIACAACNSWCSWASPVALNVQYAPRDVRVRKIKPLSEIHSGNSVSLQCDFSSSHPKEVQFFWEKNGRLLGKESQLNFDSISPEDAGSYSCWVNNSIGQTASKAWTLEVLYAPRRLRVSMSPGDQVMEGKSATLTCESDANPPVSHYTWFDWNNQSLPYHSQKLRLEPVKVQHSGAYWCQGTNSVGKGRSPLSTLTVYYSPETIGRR

Target: CD22 target antigen coated on plate (UniProt P20273)
Assay: NFAT-luciferase activation of CAR JNL cells on CD22-coated plate

Row | Binder | binding
1 | CAR22-53 (scFv, scFv domain of a CAR on JNL cells or T cells; also called CD22-53; hCD22-53) scFv: EVQLQQSGPGLVKPSQTLSLTCAISGDSVSSNSAAWNWIRQSPSRGLEWLGRTYYRSKWYSDYAVSVKSRITINPDTSKNQFSLQLNSVTPEDTAVYYCARDPYDFWSGYPDAFDIWGQGTMVTVSSGGGGSGGGGSGGGGSQSALTQPASVSGSPGQSITISCTGTSSDVGGYNYVSWYQQHPGKAPKVIISEVNNRPSGVSHRFSGSKSGNTASLTISGLQAEDEADYFCSSYTSGRTLYVFGTGSKVTVLG | binds
2 | CAR22-12 (scFv, scFv domain of a CAR on T cells or JNL cells; also called CD22 CAR clone 12; hCD22-12) scFv: EVQLQQSGPGLVKPSQTLSLTCAISGDSVLSNSDTWNWIRQSPSRGLEWLGRTYHRSTWYDDYASSVRGRVSINVDTSKNQYSLQLNAVTPEDTGVYYCARDRLQDGNSWSDAFDVWGQGTMVTVSSGGGGSGGGGSGGGGSQSALTQPASASGSPGQSVTISCTGTSSDVGGYNYVSWYQQHPGKAPKLMIYDVSNRPSGVSNRFSGSKSGNTASLTISGLQAEDEADYYCSSYTSSSTLYVFGTGTQLTVL | binds
